Measurements reported in the supplement of paper PMC12823440, “Inhibitors supercharge kinase turnover through native proteolytic circuits” (Nature, 2025).
Counter-ions that a name gives are not always drawn. The list shows a part of the results. Hit calls seldom repeat between salt and free forms of one compound.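 Kinases were expressed as nanoluciferase fusions in K562 cells and luminescence was read every 4 h between 2 and 18 h as percent of control, DMSO set to 100% and a positive control to 0%. A time point counts as decreased when the signal drops significantly (2 sigma). The hit call is the authors' own, does not follow from the count of time points alone, and its rule is not shown.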

The chains behind the UniProt entries cited, without tags or fusion partners. Where a name states a change or a piece, a line headed by the entry shows the natural chain unless it says otherwise.
UniProt Q05397, whole entry, looked up: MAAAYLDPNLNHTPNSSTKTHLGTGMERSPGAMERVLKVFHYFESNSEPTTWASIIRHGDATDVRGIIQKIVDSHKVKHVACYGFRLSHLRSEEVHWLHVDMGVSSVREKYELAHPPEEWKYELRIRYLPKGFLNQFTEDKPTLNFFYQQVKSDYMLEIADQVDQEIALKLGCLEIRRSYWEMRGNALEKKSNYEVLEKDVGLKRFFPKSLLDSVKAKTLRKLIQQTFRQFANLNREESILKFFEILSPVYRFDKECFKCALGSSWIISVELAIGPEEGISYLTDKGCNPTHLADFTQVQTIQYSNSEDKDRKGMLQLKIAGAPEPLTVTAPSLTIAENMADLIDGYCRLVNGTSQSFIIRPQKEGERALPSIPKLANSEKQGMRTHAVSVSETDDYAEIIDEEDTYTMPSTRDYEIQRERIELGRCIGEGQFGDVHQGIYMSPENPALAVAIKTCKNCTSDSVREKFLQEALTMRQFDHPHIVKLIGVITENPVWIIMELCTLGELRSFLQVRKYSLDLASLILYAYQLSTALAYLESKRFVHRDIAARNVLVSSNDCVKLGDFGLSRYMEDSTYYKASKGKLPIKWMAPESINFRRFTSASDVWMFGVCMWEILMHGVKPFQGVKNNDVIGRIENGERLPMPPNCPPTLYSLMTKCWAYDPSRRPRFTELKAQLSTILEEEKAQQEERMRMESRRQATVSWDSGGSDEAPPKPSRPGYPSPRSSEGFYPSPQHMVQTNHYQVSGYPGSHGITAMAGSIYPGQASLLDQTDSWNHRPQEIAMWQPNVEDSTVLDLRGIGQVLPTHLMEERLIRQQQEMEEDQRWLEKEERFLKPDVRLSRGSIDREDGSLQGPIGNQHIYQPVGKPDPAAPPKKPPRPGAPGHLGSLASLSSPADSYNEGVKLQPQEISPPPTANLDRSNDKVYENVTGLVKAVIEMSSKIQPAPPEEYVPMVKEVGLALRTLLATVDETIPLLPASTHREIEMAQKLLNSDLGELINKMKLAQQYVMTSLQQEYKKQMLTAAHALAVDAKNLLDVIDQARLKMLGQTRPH
UniProt Q14289, whole entry, looked up: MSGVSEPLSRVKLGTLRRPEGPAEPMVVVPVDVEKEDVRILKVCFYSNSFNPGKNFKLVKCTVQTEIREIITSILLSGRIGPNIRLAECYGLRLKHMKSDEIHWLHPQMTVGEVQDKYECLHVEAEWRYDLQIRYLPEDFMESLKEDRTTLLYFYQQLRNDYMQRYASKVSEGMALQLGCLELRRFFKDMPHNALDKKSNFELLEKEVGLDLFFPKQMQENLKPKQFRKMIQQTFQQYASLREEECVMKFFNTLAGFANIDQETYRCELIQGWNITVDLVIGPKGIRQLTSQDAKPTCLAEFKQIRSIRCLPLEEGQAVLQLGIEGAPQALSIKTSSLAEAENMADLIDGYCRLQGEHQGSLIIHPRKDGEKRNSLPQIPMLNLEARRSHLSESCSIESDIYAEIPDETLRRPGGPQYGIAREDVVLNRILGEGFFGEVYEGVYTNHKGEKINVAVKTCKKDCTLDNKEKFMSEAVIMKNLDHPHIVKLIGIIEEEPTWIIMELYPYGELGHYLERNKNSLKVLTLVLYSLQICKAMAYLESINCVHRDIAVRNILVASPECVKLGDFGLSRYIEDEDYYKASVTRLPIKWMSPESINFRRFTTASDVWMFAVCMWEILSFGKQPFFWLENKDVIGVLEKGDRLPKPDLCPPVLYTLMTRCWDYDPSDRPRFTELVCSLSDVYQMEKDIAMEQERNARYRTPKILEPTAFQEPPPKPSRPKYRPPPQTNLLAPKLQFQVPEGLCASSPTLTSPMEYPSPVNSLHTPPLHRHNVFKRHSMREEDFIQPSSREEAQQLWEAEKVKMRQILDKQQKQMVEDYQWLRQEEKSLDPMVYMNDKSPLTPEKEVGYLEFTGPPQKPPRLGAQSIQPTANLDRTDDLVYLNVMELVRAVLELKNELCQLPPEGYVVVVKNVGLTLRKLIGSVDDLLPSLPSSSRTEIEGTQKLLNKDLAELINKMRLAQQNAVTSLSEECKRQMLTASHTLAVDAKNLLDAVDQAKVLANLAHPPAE
UniProt P07949, whole entry, looked up: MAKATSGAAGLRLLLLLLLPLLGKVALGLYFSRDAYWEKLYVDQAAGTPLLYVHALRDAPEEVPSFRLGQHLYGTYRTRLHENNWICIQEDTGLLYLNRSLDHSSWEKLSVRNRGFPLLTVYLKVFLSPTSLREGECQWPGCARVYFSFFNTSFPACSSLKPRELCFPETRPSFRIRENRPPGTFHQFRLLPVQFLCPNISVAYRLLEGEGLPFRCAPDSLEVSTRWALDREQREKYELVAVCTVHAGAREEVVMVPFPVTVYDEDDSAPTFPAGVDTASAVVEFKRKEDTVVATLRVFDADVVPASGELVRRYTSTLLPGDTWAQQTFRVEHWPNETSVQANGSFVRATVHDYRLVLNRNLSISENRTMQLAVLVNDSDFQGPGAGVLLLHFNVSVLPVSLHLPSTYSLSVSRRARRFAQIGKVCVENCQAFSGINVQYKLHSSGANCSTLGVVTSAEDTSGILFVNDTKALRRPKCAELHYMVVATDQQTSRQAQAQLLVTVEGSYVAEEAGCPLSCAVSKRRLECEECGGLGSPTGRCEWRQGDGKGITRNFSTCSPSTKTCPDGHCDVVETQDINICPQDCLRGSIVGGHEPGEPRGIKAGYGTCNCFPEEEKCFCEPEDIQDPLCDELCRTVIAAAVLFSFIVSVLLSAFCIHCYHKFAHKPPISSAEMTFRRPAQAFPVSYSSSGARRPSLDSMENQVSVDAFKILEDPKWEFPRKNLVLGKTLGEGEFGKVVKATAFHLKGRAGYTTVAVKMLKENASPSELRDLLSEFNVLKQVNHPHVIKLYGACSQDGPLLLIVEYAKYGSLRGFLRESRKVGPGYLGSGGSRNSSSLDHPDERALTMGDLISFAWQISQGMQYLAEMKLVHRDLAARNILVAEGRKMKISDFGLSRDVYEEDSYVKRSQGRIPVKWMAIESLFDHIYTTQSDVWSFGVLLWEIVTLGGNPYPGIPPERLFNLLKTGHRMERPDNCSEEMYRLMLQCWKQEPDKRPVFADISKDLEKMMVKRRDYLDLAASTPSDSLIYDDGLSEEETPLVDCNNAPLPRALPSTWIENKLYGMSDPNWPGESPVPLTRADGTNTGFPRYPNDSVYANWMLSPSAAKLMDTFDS
UniProt P07949, whole entry M918T, looked up: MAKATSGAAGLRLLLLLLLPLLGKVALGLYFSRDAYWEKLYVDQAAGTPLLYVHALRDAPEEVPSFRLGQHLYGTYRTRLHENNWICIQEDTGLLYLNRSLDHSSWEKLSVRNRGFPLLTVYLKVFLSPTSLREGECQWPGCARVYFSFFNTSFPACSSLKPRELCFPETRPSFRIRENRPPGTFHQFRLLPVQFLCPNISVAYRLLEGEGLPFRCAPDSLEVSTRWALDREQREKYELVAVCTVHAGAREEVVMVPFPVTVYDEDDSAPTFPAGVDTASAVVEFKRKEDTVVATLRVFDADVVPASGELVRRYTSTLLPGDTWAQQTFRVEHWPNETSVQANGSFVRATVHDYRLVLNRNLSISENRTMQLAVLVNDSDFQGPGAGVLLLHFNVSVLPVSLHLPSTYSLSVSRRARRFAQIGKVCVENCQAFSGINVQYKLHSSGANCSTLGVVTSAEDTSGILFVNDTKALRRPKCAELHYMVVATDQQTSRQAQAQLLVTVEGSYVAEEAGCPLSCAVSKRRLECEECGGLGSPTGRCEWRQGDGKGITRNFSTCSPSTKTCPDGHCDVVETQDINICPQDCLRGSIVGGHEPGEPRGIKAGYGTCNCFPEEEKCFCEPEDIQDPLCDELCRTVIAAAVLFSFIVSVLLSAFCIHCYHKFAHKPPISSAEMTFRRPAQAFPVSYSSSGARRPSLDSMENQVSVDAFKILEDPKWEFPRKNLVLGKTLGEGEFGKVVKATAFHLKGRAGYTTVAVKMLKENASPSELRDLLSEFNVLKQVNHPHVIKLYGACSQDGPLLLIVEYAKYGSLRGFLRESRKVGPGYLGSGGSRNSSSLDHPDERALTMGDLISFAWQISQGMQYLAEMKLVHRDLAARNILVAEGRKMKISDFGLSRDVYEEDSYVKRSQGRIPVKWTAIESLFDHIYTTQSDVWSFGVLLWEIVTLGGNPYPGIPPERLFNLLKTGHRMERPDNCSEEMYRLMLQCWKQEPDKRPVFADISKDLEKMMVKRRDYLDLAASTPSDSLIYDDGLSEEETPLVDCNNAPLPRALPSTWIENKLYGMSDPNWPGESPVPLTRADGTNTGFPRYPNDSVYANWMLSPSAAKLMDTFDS
UniProt Q13546: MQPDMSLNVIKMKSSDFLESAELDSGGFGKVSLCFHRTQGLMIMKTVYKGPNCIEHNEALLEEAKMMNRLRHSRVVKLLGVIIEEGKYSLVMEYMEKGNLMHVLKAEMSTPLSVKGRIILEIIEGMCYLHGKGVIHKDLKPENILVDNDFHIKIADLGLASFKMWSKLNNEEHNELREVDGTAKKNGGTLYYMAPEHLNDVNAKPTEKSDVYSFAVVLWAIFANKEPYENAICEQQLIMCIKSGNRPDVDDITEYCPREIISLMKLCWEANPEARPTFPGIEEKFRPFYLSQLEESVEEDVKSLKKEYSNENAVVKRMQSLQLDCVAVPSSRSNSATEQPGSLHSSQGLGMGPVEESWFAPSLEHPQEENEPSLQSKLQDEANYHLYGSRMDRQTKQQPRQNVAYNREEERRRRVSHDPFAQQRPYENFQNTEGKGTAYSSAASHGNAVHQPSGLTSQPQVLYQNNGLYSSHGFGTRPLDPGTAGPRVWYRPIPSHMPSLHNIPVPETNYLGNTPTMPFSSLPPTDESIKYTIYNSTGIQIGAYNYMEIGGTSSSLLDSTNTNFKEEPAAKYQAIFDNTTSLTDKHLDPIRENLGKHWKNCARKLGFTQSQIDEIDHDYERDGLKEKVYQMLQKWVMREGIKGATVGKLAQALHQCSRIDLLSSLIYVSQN
UniProt Q15418, whole entry: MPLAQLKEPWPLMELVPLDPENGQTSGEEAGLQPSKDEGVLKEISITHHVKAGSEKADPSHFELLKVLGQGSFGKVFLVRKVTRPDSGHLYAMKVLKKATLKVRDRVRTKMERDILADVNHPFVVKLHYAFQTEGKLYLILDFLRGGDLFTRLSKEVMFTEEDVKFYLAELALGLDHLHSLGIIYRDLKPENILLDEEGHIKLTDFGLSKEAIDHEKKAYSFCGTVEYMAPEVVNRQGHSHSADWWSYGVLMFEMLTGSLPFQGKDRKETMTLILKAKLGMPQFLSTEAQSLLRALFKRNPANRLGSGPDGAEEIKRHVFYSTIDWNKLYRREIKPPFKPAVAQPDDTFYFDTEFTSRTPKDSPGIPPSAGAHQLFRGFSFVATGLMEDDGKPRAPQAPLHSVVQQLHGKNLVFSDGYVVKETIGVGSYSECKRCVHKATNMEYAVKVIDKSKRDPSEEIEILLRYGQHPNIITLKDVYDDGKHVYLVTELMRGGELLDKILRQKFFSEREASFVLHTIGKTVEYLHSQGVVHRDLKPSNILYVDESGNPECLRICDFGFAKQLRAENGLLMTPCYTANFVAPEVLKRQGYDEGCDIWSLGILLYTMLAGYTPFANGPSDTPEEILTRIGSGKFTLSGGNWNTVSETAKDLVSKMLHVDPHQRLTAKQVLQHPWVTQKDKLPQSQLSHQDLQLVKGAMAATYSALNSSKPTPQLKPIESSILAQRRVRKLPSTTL
UniProt Q9NYA1, whole entry: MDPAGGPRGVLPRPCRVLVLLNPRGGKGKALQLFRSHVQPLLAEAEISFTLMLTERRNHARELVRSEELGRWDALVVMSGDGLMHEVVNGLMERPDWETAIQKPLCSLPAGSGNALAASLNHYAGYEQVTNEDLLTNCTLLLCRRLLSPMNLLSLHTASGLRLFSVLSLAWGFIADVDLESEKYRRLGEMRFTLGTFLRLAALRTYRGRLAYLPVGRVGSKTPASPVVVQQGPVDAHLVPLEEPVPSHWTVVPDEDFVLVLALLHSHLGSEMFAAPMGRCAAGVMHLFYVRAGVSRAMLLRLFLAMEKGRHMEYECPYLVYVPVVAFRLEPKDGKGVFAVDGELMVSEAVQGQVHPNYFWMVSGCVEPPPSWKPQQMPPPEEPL
UniProt Q6PHR2: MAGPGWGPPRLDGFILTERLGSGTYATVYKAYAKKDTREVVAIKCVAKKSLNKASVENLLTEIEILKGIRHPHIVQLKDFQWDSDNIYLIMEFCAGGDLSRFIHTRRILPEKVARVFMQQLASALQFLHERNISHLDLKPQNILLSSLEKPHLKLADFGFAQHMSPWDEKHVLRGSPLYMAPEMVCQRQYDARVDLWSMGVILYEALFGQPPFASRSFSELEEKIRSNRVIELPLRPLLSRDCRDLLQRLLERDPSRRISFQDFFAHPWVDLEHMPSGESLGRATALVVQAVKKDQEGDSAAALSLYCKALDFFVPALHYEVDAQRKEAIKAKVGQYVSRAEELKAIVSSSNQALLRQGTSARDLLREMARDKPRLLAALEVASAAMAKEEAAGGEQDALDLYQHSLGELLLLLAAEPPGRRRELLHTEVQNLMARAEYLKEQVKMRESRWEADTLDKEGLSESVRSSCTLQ

What was measured:
Test in all cases: number of time points (of 5) at which kinase-Nluc abundance scored as decreased, DMSO-normalised (count); higher = more persistent destabilization
Conditions in all cases: K562; 2-18 h
PRKCA = PRKCA (UniProt P17252)
PTK2 = PTK2 (UniProt Q05397)
PTK2B = PTK2B (UniProt Q14289)
RAF1 = RAF1 (UniProt P04049)
[1] = target: RAF1_S257L (clone: RAF1_mut) (UniProt P04049)
RET = RET (UniProt P07949)
[2] = target: RET_M918T (clone: RET_mut) (UniProt P07949)
RIOK1 = RIOK1 (UniProt Q9BRS2)
RIPK1 = RIPK1 (UniProt Q13546)
RIPK2 = RIPK2 (UniProt O43353)
ROR2 = ROR2 (UniProt Q01974)
RPS6KA1 = RPS6KA1 (UniProt Q15418)
SPHK1 = SPHK1 (UniProt Q9NYA1)
SRC = SRC (UniProt P12931)
STK24 = STK24 (UniProt Q9Y6E0)
STK38 = STK38 (UniProt Q15208)
SYK = SYK (UniProt P43405)
TEC = TEC (UniProt P42680)
TYK2 = TYK2 (UniProt P29597)
ULK3 = ULK3 (UniProt Q6PHR2)

Measured: number of time points

O=C(O)c1cc(N(Cc2ccccc2O)Cc2ccccc2O)ccc1O [Lavendustin B] (10 µM)
0: PRKCA | PTK2 | PTK2B | RAF1 | [1] | RET | [2] | RIOK1 | RIPK1 | RIPK2 | ROR2 | RPS6KA1 | SPHK1 | SRC | STK24 | STK38 | SYK | TEC | TYK2 | ULK3

NC1=NCCN1CC(=O)O [Cyclocreatine] (10 µM)
0: PRKCA | PTK2 | PTK2B | RAF1 | [1] | RET | [2] | RIOK1 | RIPK1 | RIPK2 | ROR2 | RPS6KA1 | SPHK1 | SRC | STK24 | STK38 | SYK | TEC | TYK2 | ULK3

COc1cc(/C=C/C(=O)N2CCC=CC2=O)cc(OC)c1OC [Piperlongumine] (2.5 µM)
0: PRKCA | PTK2B | RAF1 | RET | [2] | RIOK1 | ROR2 | RPS6KA1 | SPHK1 | SRC | STK24 | STK38 | SYK | TEC | TYK2 | ULK3
4: RIPK1 | RIPK2
3: PTK2
5: [1]

Cc1cc(Nc2nc(CC3(C(=O)O)CCN(C(=O)c4cccc(Cl)c4Cl)CC3)ccc2F)n[nH]1 (10 µM)
1: RAF1 | RET | RIOK1 | RIPK2 | ULK3
2: TYK2
3: [1]
0: PRKCA | PTK2 | PTK2B | [2] | RIPK1 | ROR2 | RPS6KA1 | SPHK1 | SRC | STK24 | STK38 | SYK | TEC

Cc1ccc2c(Nc3cccc(Cl)c3F)nccc2c1NC(=O)c1csc2c(N)ncnc12 [Belvarafenib] (10 µM)
0: PRKCA | PTK2 | PTK2B | RAF1 | [1] | RET | [2] | RIOK1 | RIPK1 | RIPK2 | ROR2 | RPS6KA1 | SPHK1 | SRC | STK24 | STK38 | SYK | TEC | TYK2 | ULK3

CNC(=O)c1cc2c(Oc3ccc(NC(=S)NC(=O)Cc4ccccc4)cc3F)ccnc2cc1OC [TAS-115 mesylate] (10 µM)
2: RIPK1 | ROR2 | SPHK1
3: PTK2 | PTK2B | TEC
4: ULK3
1: RAF1
0: PRKCA | [1] | RET | [2] | RIOK1 | RIPK2 | RPS6KA1 | SRC | STK24 | STK38 | SYK | TYK2

COc1cc(N(C)CCN(C)C)c(N)cc1Nc1nccc(-c2cn(C)c3ccccc23)n1 [Mutated EGFR-IN-1] (10 µM)
0: PRKCA | PTK2 | PTK2B | RAF1 | RET | [2] | RIOK1 | RIPK1 | RIPK2 | ROR2 | RPS6KA1 | SPHK1 | SRC | STK24 | STK38 | SYK | TEC | TYK2 | ULK3
2: [1]

Cc1ccc(Oc2nc3cc(-c4ccc(-c5ccccc5)cc4)c(Cl)cc3[nH]2)cc1C(=O)O (10 µM)
0: PRKCA | PTK2 | PTK2B | RAF1 | [1] | RET | [2] | RIOK1 | RIPK1 | RIPK2 | ROR2 | RPS6KA1 | SPHK1 | SRC | STK24 | STK38 | SYK | TEC | TYK2 | ULK3

Nc1n[nH]c2nc(-c3ccc(NS(=O)(=O)c4cc(Cl)ccc4F)cc3)cnc12 (10 µM)
5: SPHK1
2: RAF1
1: PTK2
0: PRKCA | PTK2B | [1] | RET | [2] | RIOK1 | RIPK1 | RIPK2 | ROR2 | RPS6KA1 | SRC | STK24 | STK38 | SYK | TEC | TYK2 | ULK3

CNC(=O)c1ccccc1Oc1nc(Nc2cc(OC)c(OC)c(OC)c2)ncc1Br (2.5 µM)
0: PRKCA | PTK2 | PTK2B | RAF1 | [1] | RET | [2] | RIOK1 | RIPK1 | RIPK2 | ROR2 | RPS6KA1 | SPHK1 | SRC | STK24 | STK38 | SYK | TEC | TYK2 | ULK3

C=C[C@@](C)(/C=C/c1ccc(O)cc1)CCC=C(C)C [Bakuchiol] (10 µM)
0: PRKCA | PTK2 | PTK2B | RAF1 | [1] | RET | [2] | RIOK1 | RIPK1 | RIPK2 | ROR2 | RPS6KA1 | SPHK1 | SRC | STK24 | STK38 | SYK | TEC | TYK2 | ULK3

C[C@H](NC(=O)[C@H]1NCC[C@@H]1O)c1ccc(-c2noc(CCC3CCCC3)n2)cc1 (10 µM)
0: PRKCA | PTK2 | PTK2B | RAF1 | [1] | RET | [2] | RIOK1 | RIPK1 | RIPK2 | ROR2 | RPS6KA1 | SPHK1 | SRC | STK24 | STK38 | SYK | TEC | TYK2 | ULK3

COc1ccc(/C=C/C(=O)C2(C(=O)/C=C/c3ccc(OC)c(OC)c3)CCCCC2)cc1OC (2.5 µM)
2: TYK2
0: PRKCA | PTK2 | PTK2B | RAF1 | [1] | RET | [2] | RIOK1 | RIPK1 | RIPK2 | ROR2 | RPS6KA1 | SPHK1 | SRC | STK24 | STK38 | SYK | TEC
1: ULK3

O=C(NC1CCOCC1)c1ccc(-c2cc(-c3c[nH]nc3-c3ccccn3)ccn2)cc1 (10 µM)
0: PRKCA | PTK2 | PTK2B | RAF1 | [1] | RET | [2] | RIOK1 | RIPK1 | RIPK2 | ROR2 | RPS6KA1 | SPHK1 | SRC | STK24 | STK38 | SYK | TEC | TYK2 | ULK3

CN1CCC(c2ccccc2CC(C)(C)Nc2nc(N3CCOCC3)nc(-n3c(C(F)F)nc4ccccc43)n2)CC1 [Zandelisib] (10 µM)
0: PRKCA | PTK2 | PTK2B | RAF1 | [1] | RET | [2] | RIOK1 | RIPK1 | RIPK2 | ROR2 | RPS6KA1 | SPHK1 | SRC | STK24 | STK38 | SYK | TEC | TYK2 | ULK3

c1cc(NC2CCNCC2)nc(-c2cnc3ccccn23)c1 [IRAK inhibitor 1] (10 µM)
0: PRKCA | PTK2 | PTK2B | RAF1 | [1] | RET | [2] | RIOK1 | RIPK1 | RIPK2 | ROR2 | RPS6KA1 | SPHK1 | SRC | STK24 | STK38 | SYK | TEC | TYK2 | ULK3

Oc1ccc(/C=C/c2cc(O)cc(F)c2)cc1 [Resveratrol analog 1] (10 µM)
0: PRKCA | PTK2 | PTK2B | RAF1 | [1] | RET | [2] | RIOK1 | RIPK1 | RIPK2 | ROR2 | RPS6KA1 | SPHK1 | SRC | STK24 | STK38 | SYK | TEC | TYK2 | ULK3

O=C(CNc1cccc(Cl)c1)NC1CCCN(c2ncnc3[nH]ccc23)C1 (stereo not given) (10 µM)
0: PRKCA | PTK2 | PTK2B | RAF1 | [1] | RET | [2] | RIOK1 | RIPK1 | RIPK2 | ROR2 | RPS6KA1 | SPHK1 | SRC | STK24 | STK38 | SYK | TEC | TYK2 | ULK3

O=C(Nc1nc2ccccc2[nH]1)c1cccc([N+](=O)[O-])c1 [IRAK-4 protein kinase inhibitor 2] (10 µM)
0: PRKCA | PTK2 | PTK2B | RAF1 | [1] | RET | [2] | RIOK1 | RIPK1 | RIPK2 | ROR2 | RPS6KA1 | SPHK1 | SRC | STK24 | STK38 | SYK | TEC | TYK2 | ULK3

CNC(=O)c1ccccc1Nc1nc(Nc2ccc3c(c2OC)CCC[C@H](N2CCN(CCO)CC2)C3)ncc1Cl (10 µM)
0: PRKCA | PTK2B | RET | ROR2 | RPS6KA1 | SPHK1 | SRC | STK24 | STK38 | SYK | TEC
3: [2] | RIPK1 | ULK3
4: [1] | TYK2
2: PTK2 | RAF1 | RIOK1 | RIPK2

C#Cc1cccc(Nc2ncnc3cc(OC)c(OCCCCCCC(=O)NO)cc23)c1 (2.5 µM)
0: PRKCA | PTK2 | PTK2B | RAF1 | [1] | RET | [2] | RIOK1 | RIPK1 | RIPK2 | ROR2 | RPS6KA1 | SPHK1 | SRC | STK24 | STK38 | SYK | TEC | TYK2 | ULK3

CNc1cc(Nc2cccn(-c3ccccn3)c2=O)nn2c(C(=O)N[C@@H]3C[C@@H]3F)cnc12 (2.5 µM)
5: PTK2B
0: PRKCA | PTK2 | RAF1 | [1] | RET | [2] | RIOK1 | RIPK1 | RIPK2 | ROR2 | RPS6KA1 | SPHK1 | SRC | STK24 | STK38 | SYK | TEC | TYK2 | ULK3

An excerpt from above in order of molecular weight, low to high:
Oc1ccc(/C=C/c2cc(O)cc(F)c2)cc1 [Resveratrol analog 1] (10 µM)
0: PRKCA | PTK2 | PTK2B | RAF1 | [1] | RET | [2] | RIOK1 | RIPK1 | RIPK2 | ROR2 | RPS6KA1 | SPHK1 | SRC | STK24 | STK38 | SYK | TEC | TYK2 | ULK3

O=C(Nc1nc2ccccc2[nH]1)c1cccc([N+](=O)[O-])c1 [IRAK-4 protein kinase inhibitor 2] (10 µM)
0: PRKCA | PTK2 | PTK2B | RAF1 | [1] | RET | [2] | RIOK1 | RIPK1 | RIPK2 | ROR2 | RPS6KA1 | SPHK1 | SRC | STK24 | STK38 | SYK | TEC | TYK2 | ULK3

O=C(CNc1cccc(Cl)c1)NC1CCCN(c2ncnc3[nH]ccc23)C1 (stereo not given) (10 µM)
0: PRKCA | PTK2 | PTK2B | RAF1 | [1] | RET | [2] | RIOK1 | RIPK1 | RIPK2 | ROR2 | RPS6KA1 | SPHK1 | SRC | STK24 | STK38 | SYK | TEC | TYK2 | ULK3

O=C(NC1CCOCC1)c1ccc(-c2cc(-c3c[nH]nc3-c3ccccn3)ccn2)cc1 (10 µM)
0: PRKCA | PTK2 | PTK2B | RAF1 | [1] | RET | [2] | RIOK1 | RIPK1 | RIPK2 | ROR2 | RPS6KA1 | SPHK1 | SRC | STK24 | STK38 | SYK | TEC | TYK2 | ULK3

C#Cc1cccc(Nc2ncnc3cc(OC)c(OCCCCCCC(=O)NO)cc23)c1 (2.5 µM)
0: PRKCA | PTK2 | PTK2B | RAF1 | [1] | RET | [2] | RIOK1 | RIPK1 | RIPK2 | ROR2 | RPS6KA1 | SPHK1 | SRC | STK24 | STK38 | SYK | TEC | TYK2 | ULK3

COc1ccc(/C=C/C(=O)C2(C(=O)/C=C/c3ccc(OC)c(OC)c3)CCCCC2)cc1OC (2.5 µM)
2: TYK2
0: PRKCA | PTK2 | PTK2B | RAF1 | [1] | RET | [2] | RIOK1 | RIPK1 | RIPK2 | ROR2 | RPS6KA1 | SPHK1 | SRC | STK24 | STK38 | SYK | TEC
1: ULK3

CNC(=O)c1ccccc1Nc1nc(Nc2ccc3c(c2OC)CCC[C@H](N2CCN(CCO)CC2)C3)ncc1Cl (10 µM)
0: PRKCA | PTK2B | RET | ROR2 | RPS6KA1 | SPHK1 | SRC | STK24 | STK38 | SYK | TEC
3: [2] | RIPK1 | ULK3
4: [1] | TYK2
2: PTK2 | RAF1 | RIOK1 | RIPK2

Following part

Oc1cc(O)c2c(c1)OC1(c3ccc(O)c(O)c3)Oc3cc(O)c4c(c3C2C1O)OC(c1ccc(O)c(O)c1)C(O)C4 (stereo not given) [Procyanidin A1] (10 µM)
0: PRKCA | PTK2 | PTK2B | RAF1 | [1] | RET | [2] | RIOK1 | RIPK1 | RIPK2 | ROR2 | RPS6KA1 | SPHK1 | SRC | STK24 | STK38 | SYK | TEC | TYK2 | ULK3

O=C(O)c1cccc(CN2C(=O)/C(=C(\c3ccccc3)c3ccc(Cl)cc3)c3ccccc32)c1 (2.5 µM)
0: PRKCA | PTK2 | PTK2B | RAF1 | [1] | RET | [2] | RIOK1 | RIPK1 | RIPK2 | ROR2 | RPS6KA1 | SPHK1 | SRC | STK24 | STK38 | SYK | TEC | TYK2 | ULK3

FC(F)(F)c1ccc(/C=C/c2nc(COc3ccc(CCCCn4ccnn4)cc3)co2)cc1 [Mubritinib] (10 µM)
2: RIPK1 | TEC
0: PRKCA | PTK2B | RAF1 | [1] | RIOK1 | RIPK2 | ROR2 | RPS6KA1 | SPHK1 | SRC | STK24 | STK38 | SYK | TYK2 | ULK3
3: RET | [2]
1: PTK2
